At least one peptide structure holds a part that was inferred or is arguable (an end, a ring closure or a residue). Positions of bridges follow the written chain, without caps; N, C: chain ends. Residues, ends and D or L forms follow the SMILES beside them.
Experiments:
proximal colon = settings: mucosal (luminal) addition, rat proximal colon, n=4 animals
[1] = target: T1, intestinal guanylate cyclase (Homo sapiens, UniProt P25092); assay: Cyclic GMP determination in T84 cells (bioassay); type: cell-based
T1 construct: Monolayers of T84 cells in 24-well plates were washed twice; host or cells: T84 human colon carcinoma cells

By UniProt entry, the sequences of proteins in these tests, tags left out. Residues count along the entry.
UniProt P25092, 24-1073: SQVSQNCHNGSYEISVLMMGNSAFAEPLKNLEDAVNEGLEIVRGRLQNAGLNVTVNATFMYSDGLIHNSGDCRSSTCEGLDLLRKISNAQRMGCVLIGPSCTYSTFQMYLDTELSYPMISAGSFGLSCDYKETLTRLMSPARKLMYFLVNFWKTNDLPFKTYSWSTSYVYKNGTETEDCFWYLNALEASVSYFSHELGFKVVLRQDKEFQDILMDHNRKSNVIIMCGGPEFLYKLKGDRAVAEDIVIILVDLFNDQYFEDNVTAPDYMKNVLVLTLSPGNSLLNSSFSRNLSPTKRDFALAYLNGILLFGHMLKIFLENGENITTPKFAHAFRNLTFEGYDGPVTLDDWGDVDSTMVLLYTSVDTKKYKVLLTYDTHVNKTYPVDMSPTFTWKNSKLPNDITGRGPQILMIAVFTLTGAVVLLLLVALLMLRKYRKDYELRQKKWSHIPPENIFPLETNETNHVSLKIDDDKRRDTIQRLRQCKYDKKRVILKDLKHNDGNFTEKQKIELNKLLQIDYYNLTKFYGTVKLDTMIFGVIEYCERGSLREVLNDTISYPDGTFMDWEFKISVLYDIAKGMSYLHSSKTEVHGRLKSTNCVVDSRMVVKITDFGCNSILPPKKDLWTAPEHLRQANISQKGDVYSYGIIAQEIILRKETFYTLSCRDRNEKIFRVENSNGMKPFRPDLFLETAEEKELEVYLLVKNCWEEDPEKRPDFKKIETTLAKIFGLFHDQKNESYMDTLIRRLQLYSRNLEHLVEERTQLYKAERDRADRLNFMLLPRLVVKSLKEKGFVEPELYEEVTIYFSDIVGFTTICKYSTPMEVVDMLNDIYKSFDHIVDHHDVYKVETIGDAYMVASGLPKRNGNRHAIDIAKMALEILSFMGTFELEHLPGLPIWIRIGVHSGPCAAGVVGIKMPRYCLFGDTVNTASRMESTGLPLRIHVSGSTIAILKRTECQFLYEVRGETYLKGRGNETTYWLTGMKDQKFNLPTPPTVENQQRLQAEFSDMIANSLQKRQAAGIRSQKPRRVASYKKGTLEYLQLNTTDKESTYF

CC[C@H](C)[C@@H]1NC(=O)[C@H](CCC(=O)O)NC(=O)[C@@H](NC(=O)[C@@H](NC(=O)[C@H](CC(N)=O)NC(=O)[C@@H]2CCCN2)[C@@H](C)O)CSSC[C@@H]2NC(=O)[C@H](C)NC(=O)[C@H](C)NC(=O)[C@H](Cc3ccc(O)cc3)NC(=O)[C@H](C)NC(=O)[C@H](CSSC[C@@H](C(=O)O)NC(=O)CNC(=O)[C@H]([C@@H](C)O)NC2=O)NC1=O [guanylin] (H-PNTCEICAYAACTGC-OH; disulfide 4-12, 7-15)
maximal response, increase in Isc (proximal colon): 37±13 μA/cm^2 | increase in cyclic GMP by active HPLC peak ([1]; 3% of the fraction, final C8 microbore HPLC purification): 10 fold | time course of cyclic GMP elevation ([1]; T84 cells, 10^-8 M, 1 mM IBMX): marked elevation of cyclic GMP by 1 min that progressively increased through 30 min | cyclic GMP level ([1]; T84 cells, 10^-8 M, 30 min, basal 16±5 fm/well): 282±50 fm/well | cyclic GMP level after pretreatment of the peptide with DTT ([1]; T84 cells, 10^-8 M, 30 min, peptide pretreated 30 min with 1 mM dithiothreitol): 25±5 fm/well | concentration at which an increase in cyclic GMP was elicited ([1]; T84 cells, 30 min, 1 mM IBMX): 10^-10 M

Reference: patent US5140102A, “Pentadecapeptide, guanylin, which stimulates intestinal guanylate cyclase” (Monsanto Company, priority 1991, dated 1992)
